Results: publication PMC10630445, “RNA recognition by Npl3p reveals U2 snRNA-binding compatible with a chaperone role during splicing”

The chains behind the UniProt entries cited, without tags or fusion partners. Where a name states a change or a piece, a line headed by the entry shows the natural chain unless it says otherwise.
UniProt Q01560: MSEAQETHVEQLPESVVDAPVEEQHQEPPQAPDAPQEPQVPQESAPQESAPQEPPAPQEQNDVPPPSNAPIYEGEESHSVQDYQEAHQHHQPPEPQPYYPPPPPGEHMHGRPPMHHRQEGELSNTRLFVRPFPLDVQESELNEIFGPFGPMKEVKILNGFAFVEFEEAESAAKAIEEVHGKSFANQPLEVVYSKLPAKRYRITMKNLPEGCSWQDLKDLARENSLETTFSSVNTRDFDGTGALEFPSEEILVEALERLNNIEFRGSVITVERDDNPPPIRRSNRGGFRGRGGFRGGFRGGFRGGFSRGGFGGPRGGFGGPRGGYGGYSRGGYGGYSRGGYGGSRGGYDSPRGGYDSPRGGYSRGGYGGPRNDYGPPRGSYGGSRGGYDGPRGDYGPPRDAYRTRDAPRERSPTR

Target: T1, Npl3 RRM1/2 F128A+F160A (Saccharomyces cerevisiae) (UniProt Q01560)
T1 sequence (looked up): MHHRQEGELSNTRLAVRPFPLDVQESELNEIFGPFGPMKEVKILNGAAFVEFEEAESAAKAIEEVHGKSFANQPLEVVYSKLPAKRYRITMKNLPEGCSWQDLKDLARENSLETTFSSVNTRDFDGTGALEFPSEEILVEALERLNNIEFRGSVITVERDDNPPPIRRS
Assay: ITC
Details: ITC at 40 °C in NMR buffer: RRM1 and RRM1/2 25 mM Na2HPO4, 25 mM NaH2PO4 pH 6.9; RRM2 100 mM NaCl, 20 mM NaH2PO4 pH 5.5; recombinant protein; residues 114-282

AUCCAGUGGAA [split-iCRAC consensus RNA]: binds more weakly.

Weaker means in comparison with the reference protein, sequence or condition of that experiment. Where a protein sequence is shown, tags need not be part of it.
